Results reported in the supplement of paper PMC10849652.
This is one part of the list.

Amino acid sequences for entries named in this document (tags omitted). A change or cut given only in a name is not applied to a line headed by its entry.
UniProt Q9ULC3: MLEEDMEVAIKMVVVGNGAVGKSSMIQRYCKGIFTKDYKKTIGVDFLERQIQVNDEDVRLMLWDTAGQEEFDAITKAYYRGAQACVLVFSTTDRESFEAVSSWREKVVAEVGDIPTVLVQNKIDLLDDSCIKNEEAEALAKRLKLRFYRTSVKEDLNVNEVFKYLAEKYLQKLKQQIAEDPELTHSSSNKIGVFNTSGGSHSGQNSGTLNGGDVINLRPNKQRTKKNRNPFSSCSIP
UniProt P62834: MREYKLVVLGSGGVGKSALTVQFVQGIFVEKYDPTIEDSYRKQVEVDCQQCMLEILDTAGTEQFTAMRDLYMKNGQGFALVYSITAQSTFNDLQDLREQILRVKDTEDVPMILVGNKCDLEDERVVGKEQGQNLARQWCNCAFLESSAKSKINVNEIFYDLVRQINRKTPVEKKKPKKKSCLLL
UniProt Q9H082: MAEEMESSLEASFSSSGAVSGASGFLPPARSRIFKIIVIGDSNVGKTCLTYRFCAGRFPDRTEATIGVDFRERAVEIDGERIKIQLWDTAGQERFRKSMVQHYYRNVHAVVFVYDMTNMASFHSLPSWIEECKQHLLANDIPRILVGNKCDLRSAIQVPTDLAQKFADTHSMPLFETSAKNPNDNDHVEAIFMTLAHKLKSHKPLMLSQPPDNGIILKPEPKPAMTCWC
UniProt Q96E17: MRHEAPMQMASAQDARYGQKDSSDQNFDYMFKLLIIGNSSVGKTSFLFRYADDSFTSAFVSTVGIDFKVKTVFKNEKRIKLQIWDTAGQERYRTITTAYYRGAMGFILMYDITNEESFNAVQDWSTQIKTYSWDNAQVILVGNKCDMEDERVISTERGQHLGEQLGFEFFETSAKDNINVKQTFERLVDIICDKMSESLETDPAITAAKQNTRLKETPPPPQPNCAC
UniProt P11233: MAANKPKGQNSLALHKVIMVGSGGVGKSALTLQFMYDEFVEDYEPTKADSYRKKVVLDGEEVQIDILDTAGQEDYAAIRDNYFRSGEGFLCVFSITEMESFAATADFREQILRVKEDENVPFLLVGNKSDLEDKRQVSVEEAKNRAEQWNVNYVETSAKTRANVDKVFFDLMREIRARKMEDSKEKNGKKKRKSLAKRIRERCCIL
UniProt P98179: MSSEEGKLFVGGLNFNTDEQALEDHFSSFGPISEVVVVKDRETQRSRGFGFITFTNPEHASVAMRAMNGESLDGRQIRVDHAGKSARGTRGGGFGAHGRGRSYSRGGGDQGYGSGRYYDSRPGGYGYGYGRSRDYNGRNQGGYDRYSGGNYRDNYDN
UniProt Q9H6Z4: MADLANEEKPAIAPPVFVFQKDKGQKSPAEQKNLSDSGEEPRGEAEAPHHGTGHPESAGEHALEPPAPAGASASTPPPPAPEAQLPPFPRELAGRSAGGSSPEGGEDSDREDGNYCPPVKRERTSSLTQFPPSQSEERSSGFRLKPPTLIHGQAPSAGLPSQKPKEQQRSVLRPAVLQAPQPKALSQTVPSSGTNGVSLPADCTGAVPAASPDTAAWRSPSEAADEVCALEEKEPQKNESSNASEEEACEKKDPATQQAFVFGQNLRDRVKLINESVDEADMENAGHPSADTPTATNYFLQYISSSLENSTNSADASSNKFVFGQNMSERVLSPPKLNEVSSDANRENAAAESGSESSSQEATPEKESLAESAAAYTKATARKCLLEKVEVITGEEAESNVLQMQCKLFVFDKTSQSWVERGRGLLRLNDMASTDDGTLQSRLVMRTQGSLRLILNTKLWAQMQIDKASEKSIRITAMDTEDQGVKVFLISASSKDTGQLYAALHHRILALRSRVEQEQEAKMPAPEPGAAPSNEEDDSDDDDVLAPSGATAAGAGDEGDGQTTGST
UniProt Q09028, whole entry, looked up: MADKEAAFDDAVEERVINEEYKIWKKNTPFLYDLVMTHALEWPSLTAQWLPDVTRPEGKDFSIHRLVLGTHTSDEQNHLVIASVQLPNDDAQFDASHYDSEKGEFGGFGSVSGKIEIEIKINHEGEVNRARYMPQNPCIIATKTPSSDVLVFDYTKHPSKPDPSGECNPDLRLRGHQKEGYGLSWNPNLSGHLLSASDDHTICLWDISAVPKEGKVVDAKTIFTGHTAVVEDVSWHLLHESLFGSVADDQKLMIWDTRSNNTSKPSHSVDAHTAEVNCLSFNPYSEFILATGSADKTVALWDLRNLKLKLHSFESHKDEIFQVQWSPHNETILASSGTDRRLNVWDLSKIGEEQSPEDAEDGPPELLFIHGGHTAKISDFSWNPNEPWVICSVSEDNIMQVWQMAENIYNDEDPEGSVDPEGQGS
UniProt Q5HYI8: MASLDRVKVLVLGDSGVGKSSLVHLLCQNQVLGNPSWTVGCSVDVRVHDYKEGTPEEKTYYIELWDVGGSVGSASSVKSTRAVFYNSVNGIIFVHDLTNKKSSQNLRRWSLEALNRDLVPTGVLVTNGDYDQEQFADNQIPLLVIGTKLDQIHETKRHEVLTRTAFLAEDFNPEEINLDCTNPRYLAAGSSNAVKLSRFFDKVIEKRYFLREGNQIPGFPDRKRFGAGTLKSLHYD
UniProt Q9BTL3: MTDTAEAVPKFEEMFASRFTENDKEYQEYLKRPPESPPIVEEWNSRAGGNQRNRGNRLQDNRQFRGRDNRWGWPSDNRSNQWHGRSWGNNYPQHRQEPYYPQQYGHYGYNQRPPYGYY
UniProt P51159: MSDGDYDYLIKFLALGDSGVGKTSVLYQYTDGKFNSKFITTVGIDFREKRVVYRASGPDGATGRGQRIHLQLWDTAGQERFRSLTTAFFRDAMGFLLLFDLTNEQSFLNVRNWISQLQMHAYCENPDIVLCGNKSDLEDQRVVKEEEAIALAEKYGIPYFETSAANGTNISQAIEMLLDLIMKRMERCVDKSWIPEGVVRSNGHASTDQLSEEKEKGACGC
UniProt O14966: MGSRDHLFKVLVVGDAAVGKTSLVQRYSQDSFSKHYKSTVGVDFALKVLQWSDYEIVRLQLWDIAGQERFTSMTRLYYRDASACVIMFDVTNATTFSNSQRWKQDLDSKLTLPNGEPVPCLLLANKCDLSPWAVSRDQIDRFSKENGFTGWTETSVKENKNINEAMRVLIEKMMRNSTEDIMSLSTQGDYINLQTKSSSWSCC
UniProt Q15276: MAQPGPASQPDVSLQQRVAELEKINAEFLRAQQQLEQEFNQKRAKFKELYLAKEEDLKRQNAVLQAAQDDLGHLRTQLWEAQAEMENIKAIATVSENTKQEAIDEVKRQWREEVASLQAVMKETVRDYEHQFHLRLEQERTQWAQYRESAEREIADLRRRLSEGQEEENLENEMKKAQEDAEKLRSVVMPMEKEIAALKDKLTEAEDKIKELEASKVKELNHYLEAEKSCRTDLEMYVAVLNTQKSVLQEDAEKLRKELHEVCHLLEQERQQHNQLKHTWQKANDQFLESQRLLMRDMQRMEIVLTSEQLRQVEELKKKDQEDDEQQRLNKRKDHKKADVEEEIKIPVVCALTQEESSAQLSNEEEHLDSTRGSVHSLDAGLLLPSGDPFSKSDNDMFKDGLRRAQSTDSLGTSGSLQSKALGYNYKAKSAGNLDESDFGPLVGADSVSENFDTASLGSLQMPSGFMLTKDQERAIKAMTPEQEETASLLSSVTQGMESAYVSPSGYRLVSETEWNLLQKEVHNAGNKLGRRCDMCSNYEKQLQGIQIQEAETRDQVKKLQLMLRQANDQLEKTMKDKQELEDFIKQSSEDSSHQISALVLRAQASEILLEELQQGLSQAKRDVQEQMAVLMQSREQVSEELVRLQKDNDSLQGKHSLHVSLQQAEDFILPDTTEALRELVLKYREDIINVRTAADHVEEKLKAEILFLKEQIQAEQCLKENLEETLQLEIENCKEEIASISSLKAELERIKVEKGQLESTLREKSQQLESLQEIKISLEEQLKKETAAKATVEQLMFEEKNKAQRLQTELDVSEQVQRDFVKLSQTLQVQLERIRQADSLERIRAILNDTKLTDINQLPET
UniProt Q9BUV8: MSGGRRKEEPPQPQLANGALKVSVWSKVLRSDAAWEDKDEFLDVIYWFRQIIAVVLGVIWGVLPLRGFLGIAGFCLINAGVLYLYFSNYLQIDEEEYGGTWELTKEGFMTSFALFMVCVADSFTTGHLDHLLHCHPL
UniProt P62491: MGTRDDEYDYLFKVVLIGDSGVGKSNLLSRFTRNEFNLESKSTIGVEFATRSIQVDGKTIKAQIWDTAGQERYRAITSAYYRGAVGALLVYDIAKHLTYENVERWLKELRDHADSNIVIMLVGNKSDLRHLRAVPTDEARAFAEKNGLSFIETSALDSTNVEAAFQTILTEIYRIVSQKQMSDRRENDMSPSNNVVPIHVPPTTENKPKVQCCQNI

Columns and labels:
Experiment in all cases: log2 fold change, soluble protein after heating vs DMSO (PISA); higher = thermal stabilisation; K562 cells, 10 uM, 30 min; active = over 0.2 and 3.5 SD of the protein, either way, in both replicates (recomputed)
bafetinib = compound: Cc1ccc(NC(=O)c2ccc(CN3CC[C@H](N(C)C)C3)c(C(F)(F)F)c2)cc1Nc1nccc(-c2cncnc2)n1 [bafetinib]
Outline: (§1)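 K562 cells at 2×10^6 cells/mL were treated for 30 min with 10 μM compound, and aliquots were heated for 3 min over 48°C-58°C before pooling. Extraction used PBS with 0.5% NP-40 at 4°C, and soluble protein was the supernatant after 21,000xg for 90 min, measured by TMTpro 16plex LC-MS/MS with channel sums equalised. Thermal stability values, relative to control samples and from duplicates, are log2 fold changes.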

[1] = compound: Cc1cccc(CC(=O)N2CCc3c2ccc(-c2cn(C)c4ncnc(N)c24)c3F)n1
Outline: as §1

nilotinib = compound: Cc1cn(-c2cc(NC(=O)c3ccc(C)c(Nc4nccc(-c5cccnc5)n4)c3)cc(C(F)(F)F)c2)cn1 [nilotinib]
Outline: as §1

[2] = compound: Cc1nc(Nc2n[nH]c3c2CN(C(=O)N[C@H](CN(C)C)c2ccccc2)C3(C)C)c2sccc2n1
Outline: as §1

dasatinib = compound: Cc1nc(Nc2ncc(C(=O)Nc3c(C)cccc3Cl)s2)cc(N2CCN(CCO)CC2)n1 [dasatinib]
Outline: as §1

[3] = compound: Cc1ncc(-c2ccnc(Nc3ccc(S(C)(=O)=O)cc3)n2)n1C(C)C
Outline: as §1

[4] = compound: Cn1cc(-c2ccc3c(c2)CCN3C(=O)Cc2cccc(C(F)(F)F)c2)c2c(N)ncnc21
Outline: as §1

[5] = compound: Cn1cc(-c2ccc3nnc(C(F)(F)c4ccc5ncccc5c4)n3n2)cn1
Outline: as §1

tipifarnib = compound: Cn1cncc1[C@@](N)(c1ccc(Cl)cc1)c1ccc2c(c1)c(-c1cccc(Cl)c1)cc(=O)n2C [tipifarnib]
Outline: as §1

mubritinib = compound: FC(F)(F)c1ccc(/C=C/c2nc(COc3ccc(CCCCn4ccnn4)cc3)co2)cc1 [mubritinib]
Outline: as §1

[6] = compound: NC(=O)Nc1cc(-c2cccc(F)c2)sc1C(=O)N[C@H]1CCCNC1
Outline: as §1

[7] = compound: NC(=O)c1cnc(N[C@@H]2CCCC[C@@H]2N)nc1Nc1cccc(-n2nccn2)c1
Outline: as §1

[8] = compound: NC1(c2ccc(-c3nc4ccn5c(=O)[nH]nc5c4cc3-c3ccccc3)cc2)CCC1
Outline: as §1

[9] = compound: NCC(=O)Nc1ccc(-n2nc(C(F)(F)F)cc2-c2ccc3c(ccc4ccccc43)c2)cc1
Outline: as §1

entinostat = compound: Nc1ccccc1NC(=O)c1ccc(CNC(=O)OCc2cccnc2)cc1 [entinostat]
Outline: as §1

vorinostat = compound: O=C(CCCCCCC(=O)Nc1ccccc1)NO [vorinostat]
Outline: as §1

citarinostat = compound: O=C(CCCCCCNC(=O)c1cnc(N(c2ccccc2)c2ccccc2Cl)nc1)NO [citarinostat]
Outline: as §1

silmitasertib = compound: O=C(O)c1ccc2c(c1)nc(Nc1cccc(Cl)c1)c1ccncc12 [silmitasertib]
Outline: as §1

[10] = compound: O=C1NC(=O)C(c2cnc3ccccn23)=C1c1cn2c3c(cc(F)cc13)CN(C(=O)N1CCCCC1)CC2
Outline: as §1

[11] = compound: c1cc(OCCN2CCCCC2)cc(-c2n[nH]c3ccc(-c4nnc[nH]4)cc23)c1
Outline: as §1

Measured: log2 fold change

RAB23 (UniProt Q9ULC3)
inactive: bafetinib -0.022 | [1] 0.016 | nilotinib -0.018 | [2] 0.017 | dasatinib 0 | [3] 0.014 | [4] 0.056 | [5] 0.024 | tipifarnib 0.063 | mubritinib 0.023 | [6] -0.065 | [7] 0.049 | [8] -0.083 | [9] -0.039 | entinostat -0.034 | vorinostat -0.01 | citarinostat -0.006 | silmitasertib 0.022 | [10] -0.03 | [11] 0.015

RAP1A (UniProt P62834)
inactive: bafetinib -0.017 | [1] -0.065 | nilotinib 0.099 | [2] -0.054 | dasatinib 0.052 | [3] 0.023 | [4] 0.041 | [5] -0.016 | tipifarnib 0.018 | mubritinib 0.001 | [6] -0.025 | [7] 0.036 | [8] 0.059 | [9] 0.066 | entinostat -0.039 | vorinostat -0.058 | citarinostat 0.016 | silmitasertib -0.063 | [10] 0.003 | [11] -0.003

RAC1 (UniProt P63000)
inactive: bafetinib 0.184 | [1] -0.017 | nilotinib 0.073 | [2] 0.045 | dasatinib 0.007 | [3] 0.048 | [4] 0.024 | [5] -0.037 | tipifarnib 0.106 | mubritinib 0.026 | [6] 0.093 | [7] 0.043 | [8] 0.018 | [9] 0.051 | entinostat 0.047 | vorinostat 0.084 | citarinostat -0.087 | silmitasertib -0.078 | [10] 0.065 | [11] 0.146

RAB33B (UniProt Q9H082)
inactive: bafetinib -0.01 | [1] 0.012 | nilotinib 0.01 | [2] 0.018 | dasatinib -0.058 | [3] 0.022 | [4] 0 | [5] 0.151 | tipifarnib 0.024 | mubritinib -0.01 | [6] -0.032 | [7] 0.014 | [8] 0.037 | [9] -0.019 | entinostat -0.035 | vorinostat -0.021 | citarinostat -0.016 | silmitasertib -0.014 | [10] -0.048 | [11] -0.032

RAB3C (UniProt Q96E17)
inactive: bafetinib -0.093 | [1] -0.009 | nilotinib 0.033 | [2] -0.013 | dasatinib 0.004 | [3] -0.006 | [4] 0.016 | [5] 0.026 | tipifarnib 0.028 | mubritinib 0.039 | [6] 0.038 | [7] 0.032 | [8] 0.049 | [9] 0.07 | entinostat 0.008 | vorinostat -0.018 | citarinostat 0.034 | silmitasertib 0.073 | [10] -0.046 | [11] 0.009

RALA (UniProt P11233)
inactive: bafetinib -0.026 | [1] 0.178 | nilotinib 0.064 | [2] -0.012 | dasatinib 0.027 | [3] -0.026 | [4] 0.014 | [5] 0.043 | tipifarnib -0.06 | mubritinib 0.015 | [6] -0.03 | [7] -0.019 | [8] 0.057 | [9] 0.004 | entinostat -0.064 | vorinostat 0.142 | citarinostat 0.082 | silmitasertib -0.021 | [10] 0.028 | [11] -0.028

RBM3 (UniProt P98179)
inactive: bafetinib 0.178 | [1] -0.026 | nilotinib 0.008 | [2] 0.123 | dasatinib 0.118 | [3] 0.128 | [4] -0.23 | [5] -0.178 | tipifarnib 0.12 | mubritinib -0.113 | [6] 0.037 | [7] 0.039 | [8] 0.415 | [9] 0.021 | entinostat -0.022 | vorinostat -0.024 | citarinostat -0.195 | silmitasertib 0.038 | [10] 0.122 | [11] -0.147

RANBP3 (UniProt Q9H6Z4)
inactive: bafetinib -0.052 | [1] 0.046 | nilotinib 0.006 | [2] -0.012 | dasatinib 0.002 | [3] 0.008 | [4] -0.007 | [5] -0.013 | tipifarnib -0.024 | mubritinib 0.019 | [6] 0.024 | [7] 0.029 | [8] -0.02 | [9] -0.013 | entinostat -0.007 | vorinostat 0.03 | citarinostat 0.041 | silmitasertib -0.016 | [10] -0.009 | [11] 0.012

RBBP4 (UniProt Q09028)
inactive: bafetinib 0.043 | [1] -0.083 | nilotinib 0.019 | [2] 0.012 | dasatinib 0 | [3] 0.002 | [4] -0.079 | [5] 0.004 | tipifarnib 0.044 | mubritinib -0.003 | [6] -0.036 | [7] -0.054 | [8] 0.015 | [9] -0.02 | entinostat -0.027 | vorinostat -0.043 | citarinostat 0.059 | silmitasertib 0.006 | [10] -0.055 | [11] -0.019

Taken from above (four entries):
RAB3C (UniProt Q96E17)
inactive: bafetinib -0.093 | [1] -0.009 | nilotinib 0.033 | [2] -0.013 | dasatinib 0.004 | [3] -0.006 | [4] 0.016 | [5] 0.026 | tipifarnib 0.028 | mubritinib 0.039 | [6] 0.038 | [7] 0.032 | [8] 0.049 | [9] 0.07 | entinostat 0.008 | vorinostat -0.018 | citarinostat 0.034 | silmitasertib 0.073 | [10] -0.046 | [11] 0.009

RALA (UniProt P11233)
inactive: bafetinib -0.026 | [1] 0.178 | nilotinib 0.064 | [2] -0.012 | dasatinib 0.027 | [3] -0.026 | [4] 0.014 | [5] 0.043 | tipifarnib -0.06 | mubritinib 0.015 | [6] -0.03 | [7] -0.019 | [8] 0.057 | [9] 0.004 | entinostat -0.064 | vorinostat 0.142 | citarinostat 0.082 | silmitasertib -0.021 | [10] 0.028 | [11] -0.028

RBM3 (UniProt P98179)
inactive: bafetinib 0.178 | [1] -0.026 | nilotinib 0.008 | [2] 0.123 | dasatinib 0.118 | [3] 0.128 | [4] -0.23 | [5] -0.178 | tipifarnib 0.12 | mubritinib -0.113 | [6] 0.037 | [7] 0.039 | [8] 0.415 | [9] 0.021 | entinostat -0.022 | vorinostat -0.024 | citarinostat -0.195 | silmitasertib 0.038 | [10] 0.122 | [11] -0.147

RANBP3 (UniProt Q9H6Z4)
inactive: bafetinib -0.052 | [1] 0.046 | nilotinib 0.006 | [2] -0.012 | dasatinib 0.002 | [3] 0.008 | [4] -0.007 | [5] -0.013 | tipifarnib -0.024 | mubritinib 0.019 | [6] 0.024 | [7] 0.029 | [8] -0.02 | [9] -0.013 | entinostat -0.007 | vorinostat 0.03 | citarinostat 0.041 | silmitasertib -0.016 | [10] -0.009 | [11] 0.012

Further entries follow:

RABL3 (UniProt Q5HYI8)
inactive: bafetinib -0.078 | [1] 0.003 | nilotinib -0.02 | [2] -0.007 | dasatinib -0.009 | [3] 0.004 | [4] 0.034 | [5] -0.007 | tipifarnib -0.016 | mubritinib 0.016 | [6] -0.028 | [7] 0.005 | [8] -0.09 | [9] 0.024 | entinostat -0.005 | vorinostat -0.01 | citarinostat 0.033 | silmitasertib -0.005 | [10] -0.021 | [11] 0.014

RAMAC (UniProt Q9BTL3)
inactive: bafetinib 0.035 | [1] 0.079 | nilotinib -0.043 | [2] 0.05 | dasatinib 0.078 | [3] 0.006 | [4] -0.043 | [5] 0 | tipifarnib 0.104 | mubritinib -0.004 | [6] -0.099 | [7] -0.021 | [8] 0.036 | [9] 0.029 | entinostat -0.043 | vorinostat -0.081 | citarinostat -0.052 | silmitasertib 0.002 | [10] -0.094 | [11] -0.073

RAB27A (UniProt P51159)
inactive: bafetinib -0.052 | [1] 0.005 | nilotinib -0.012 | [2] 0.018 | dasatinib 0.002 | [3] 0.013 | [4] 0.012 | [5] 0.023 | tipifarnib 0.031 | mubritinib 0.002 | [6] -0.038 | [7] -0.041 | [8] -0.099 | [9] -0.009 | entinostat 0.015 | vorinostat -0.041 | citarinostat 0.047 | silmitasertib 0.029 | [10] -0.01 | [11] -0.014

RAB29 (UniProt O14966)
inactive: bafetinib 0.032 | [1] 0.014 | nilotinib -0.014 | [2] -0.039 | dasatinib 0.086 | [3] 0.105 | [4] -0.009 | [5] 0.004 | tipifarnib 0.047 | mubritinib 0 | [6] -0.042 | [7] -0.007 | [8] -0.122 | [9] -0.035 | entinostat 0.011 | vorinostat 0.047 | citarinostat -0.072 | silmitasertib -0.007 | [10] -0.035 | [11] -0.255

RABEP1 (UniProt Q15276)
inactive: bafetinib -0.097 | [1] -0.028 | nilotinib 0.004 | [2] -0.015 | dasatinib 0.003 | [3] 0.025 | [4] 0.026 | [5] 0.017 | tipifarnib -0.042 | mubritinib 0.049 | [6] -0.058 | [7] -0.032 | [8] -0.009 | [9] -0.012 | entinostat -0.017 | vorinostat -0.053 | citarinostat 0.077 | silmitasertib -0.004 | [10] -0.104 | [11] -0.015

RAB5IF isoform 5 (UniProt Q9BUV8)
inactive: bafetinib 0.034 | [1] -0.01 | nilotinib -0.042 | [2] -0.011 | dasatinib 0.062 | [3] -0.051 | [4] -0.054 | [5] 0 | tipifarnib -0.013 | mubritinib 0.079 | [6] 0.008 | [7] 0.103 | [8] 0.003 | [9] -0.107 | entinostat 0.007 | vorinostat -0.019 | citarinostat 0.225 | silmitasertib -0.032 | [10] 0.168 | [11] 0.047

RAB11A (UniProt P62491)
inactive: bafetinib -0.034 | [1] -0.212 | nilotinib 0.041 | [2] -0.027 | dasatinib 0.148 | [3] 0.073 | [4] 0.034 | [5] 0.049 | tipifarnib 0.031 | mubritinib -0.023 | [6] -0.017 | [7] -0.009 | [8] 0.007 | [9] -0.171 | entinostat -0.009 | vorinostat -0.107 | citarinostat 0.001 | silmitasertib 0.022 | [10] 0.195 | [11] -0.059
